Data: the supplement of paper PMC10689618
Where a name gives a salt, the structure may show the parent alone. This is one part of the list. Single values are uncertain, as repeats are few or missing.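 Labelled rat cortical synaptosomes were engulfed by primary human fetal astrocytes. Engulfment equaled a red/green ratio, corrected for calcein live-cell signal and normalized to the plate median. Compounds were toxic when calcein dropped over 30%, and reduced phagocytosis when below 70% of the median above 5 µM.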

System: Human fetal astrocytes
Experiment: loss of total cells relative to no-compound high-control median (toxicity); higher = more toxic (fewer cells)
Conditions: 5.56 µM; 24 h

Row | SMILES | loss of total cells
1 | O=[N+]([O-])c1cccc2c(Br)[nH]nc12 [3-Bromo-7-nitroindazole] | -18%
2 | CCC(C)N(C)C(=O)c1cc2ccccc2c(-c2ccccc2Cl)n1 (stereo not drawn) | -6%
3 | OC(CN1CCN(c2cccc(Cl)c2)CC1)C(c1ccccc1)c1ccccc1 (stereo not drawn) | -12.4%
4 | CSC(=N)N [S-Methylisothiourea hemisulfate] | 5.2%
5 | Cc1ccccc1N1C(=O)c2cc(S(N)(=O)=O)c(Cl)cc2NC1C (stereo not drawn) [Metolazone] | 16.4%
6 | CC(C)(C)NCC(O)c1ccc(O)c(CO)c1 (stereo not drawn) [Albuterol hemisulfate] | -10.7%
7 | C[C@]12CC[C@@H]3c4ccc(O)cc4CC[C@H]3[C@@H]1CCC2=O [Estrone] | 8.2%
8 | Nc1nc2[nH]c(=O)cnc2c(=O)[nH]1 [Isoxanthopterin] | -3.3%
9 | CC[N+](CC)(CC)CC [Tetraethylammonium chloride] | -5.6%
10 | O=C(CCCN1CC=C(n2c(=O)[nH]c3ccccc32)CC1)c1ccc(F)cc1 [Droperidol] | 3.3%
11 | CCn1c(=O)[nH]c2cc(Cl)c(Cl)cc21 | -5.8%
12 | C=C[C@H]1CN2CC[C@H]1C[C@H]2[C@H](O)c1ccnc2ccc(OC)cc12 [Quinine sulfate] | -10.7%
13 | CC(C)C(=O)Nc1ccc([N+](=O)[O-])c(C(F)(F)F)c1 [Flutamide] | -17.3%
14 | NCCNC(=O)c1ccc(Cl)cc1 [Ro 16-6491 hydrochloride] | -7.3%
15 | Cn1c(=O)c2[nH]c(-c3ccc(S(=O)(=O)O)cc3)nc2n(C)c1=O [8-(p-Sulfophenyl)theophylline] | -17.1%
16 | CN(C(=O)CCCOc1ccc2[nH]c(=O)ccc2c1)C1CCCCC1 [Cilostamide] | -11.5%
17 | Oc1ncnc2[nH]ncc12 [Allopurinol] | -15.2%
18 | N=C(N)c1ccccc1 [Benzamidine hydrochloride] | -5.1%
19 | COc1ccc(CCN(C)CCCC(C#N)(c2cc(OC)c(OC)c(OC)c2)C(C)C)cc1OC (racemic) [(±)-Methoxyverapamil hydrochloride] | 11.7%
20 | O=[N+]([O-])c1cc2nc(O)c(O)nc2cc1[N+](=O)[O-] | 26.3%

Row | SMILES | loss of total cells
21 | Nc1ncnc2c1nc(Br)n2C1OC2COP(=O)(O)O[C@@H]2C1O (stereo partly drawn) [8-Bromo-cAMP sodium] | -6.9%
22 | CCOC(=O)C1=C(C)NC(C)=C(C(=O)OC)C1c1cccc([N+](=O)[O-])c1 (stereo not drawn) [Nitrendipine] | -15.5%
23 | CC1(NC(=O)CBr)CCC(C(C)(C)NCC(O)COc2cccc3[nH]ccc23)CC1 (racemic) [(±)-Pindobind] | -6.7%
24 | COc1ccc2c(c1)c(CC(=O)N1CCOCC1)c(C)n2C(=O)c1ccc(Cl)cc1 [Indomethacin morpholinylamide] | 15.5%
25 | CO/N=C(\C(=O)N[C@@H]1C(=O)N2C(C(=O)O)=C(COC(C)=O)CS[C@H]12)c1csc(N)n1 [Cefotaxime sodium] | -15.2%
26 | COc1cc(NS(C)(=O)=O)ccc1Nc1c2ccccc2nc2ccccc12 [Amsacrine hydrochloride] | -4.1%
27 | OC(CN1CCC(Cc2ccc(F)cc2)CC1)c1ccc(Cl)cc1 (stereo not drawn) [Eliprodil] | -14%
28 | CC(C)NC[C@@H](O)COc1ccc(CC(N)=O)cc1 [R(+)-Atenolol] | -15.2%
29 | CNC(=O)c1cc2c(cn1)[nH]c1ccccc12 [N-Methyl-beta-carboline-3-carboxamide] | -15.6%
30 | CN1CCC[C@@H]1c1cccnc1.Cc1ccc(C(=O)O[C@H](C(=O)O)[C@@H](OC(=O)c2ccc(C)cc2)C(=O)O)cc1 [(+)-Nicotine (+)-di-p-toluoyl tartrate] | -6.1%
31 | O=C(O)c1cc(=O)c2c(Cl)cc(Cl)cc2[nH]1 [5,7-Dichlorokynurenic acid] | -9.9%
32 | CNC(=O)[C@H]1O[C@@H](n2cnc3c(NCc4cccc(I)c4)ncnc32)[C@H](O)[C@@H]1O | 8%
33 | Cn1ccc2cc3c(cc21)CCN3C(=O)Nc1cccnc1 | 2.2%
34 | CC[C@H](NC(=O)c1c(C)c(-c2ccccc2)nc2ccccc12)c1ccccc1 | -10.6%
35 | Oc1cc2c(c(Cl)c1O)CCNCC2c1ccccc1 (racemic) [(±)-6-Chloro-PB hydrobromide] | 2.2%
36 | CCOC(=O)c1cnc2c(cnn2CC)c1NN=C(C)C [Etazolate hydrochloride] | -16.5%
37 | CC(C)=CCC/C(C)=C/CC/C(C)=C/CSc1ccccc1C(=O)O [Farnesylthiosalicylic acid] | 12.3%
38 | CC(=O)NCCc1c[nH]c2ccc(O)cc12 [N-Acetyl-5-hydroxytryptamine] | -21.7%
39 | O=c1[nH]c2cc(Cl)ccc2c(O)c1-c1cccc(Oc2ccccc2)c1 | 3.3%

Same assay, conditions: 11.11 µM; 24 h

Row | SMILES | loss of total cells
40 | O=[N+]([O-])c1cccc2c(Br)[nH]nc12 [3-Bromo-7-nitroindazole] | 2.2%
41 | CCC(C)N(C)C(=O)c1cc2ccccc2c(-c2ccccc2Cl)n1 (stereo not drawn) | -10.3%
42 | OC(CN1CCN(c2cccc(Cl)c2)CC1)C(c1ccccc1)c1ccccc1 (stereo not drawn) | -8.5%
43 | CSC(=N)N [S-Methylisothiourea hemisulfate] | 6.7%
44 | Cc1ccccc1N1C(=O)c2cc(S(N)(=O)=O)c(Cl)cc2NC1C (stereo not drawn) [Metolazone] | 19%
45 | CC(C)(C)NCC(O)c1ccc(O)c(CO)c1 (stereo not drawn) [Albuterol hemisulfate] | -13.4%
46 | C[C@]12CC[C@@H]3c4ccc(O)cc4CC[C@H]3[C@@H]1CCC2=O [Estrone] | 3.1%
47 | Nc1nc2[nH]c(=O)cnc2c(=O)[nH]1 [Isoxanthopterin] | 9.5%
48 | CC[N+](CC)(CC)CC [Tetraethylammonium chloride] | -8.8%
49 | O=C(CCCN1CC=C(n2c(=O)[nH]c3ccccc32)CC1)c1ccc(F)cc1 [Droperidol] | 6.7%
50 | CCn1c(=O)[nH]c2cc(Cl)c(Cl)cc21 | -13.9%
51 | C=C[C@H]1CN2CC[C@H]1C[C@H]2[C@H](O)c1ccnc2ccc(OC)cc12 [Quinine sulfate] | -22.6%
52 | CC(C)C(=O)Nc1ccc([N+](=O)[O-])c(C(F)(F)F)c1 [Flutamide] | -8.5%
53 | NCCNC(=O)c1ccc(Cl)cc1 [Ro 16-6491 hydrochloride] | -24.9%
54 | Cn1c(=O)c2[nH]c(-c3ccc(S(=O)(=O)O)cc3)nc2n(C)c1=O [8-(p-Sulfophenyl)theophylline] | -4%
55 | CN(C(=O)CCCOc1ccc2[nH]c(=O)ccc2c1)C1CCCCC1 [Cilostamide] | -13.9%
56 | Oc1ncnc2[nH]ncc12 [Allopurinol] | -6.7%
57 | N=C(N)c1ccccc1 [Benzamidine hydrochloride] | -0.4%
58 | COc1ccc(CCN(C)CCCC(C#N)(c2cc(OC)c(OC)c(OC)c2)C(C)C)cc1OC (racemic) [(±)-Methoxyverapamil hydrochloride] | 7.6%
59 | O=[N+]([O-])c1cc2nc(O)c(O)nc2cc1[N+](=O)[O-] | 5.8%

Row | SMILES | loss of total cells
60 | Nc1ncnc2c1nc(Br)n2C1OC2COP(=O)(O)O[C@@H]2C1O (stereo partly drawn) [8-Bromo-cAMP sodium] | -3.1%
61 | CCOC(=O)C1=C(C)NC(C)=C(C(=O)OC)C1c1cccc([N+](=O)[O-])c1 (stereo not drawn) [Nitrendipine] | -12.4%
62 | CC1(NC(=O)CBr)CCC(C(C)(C)NCC(O)COc2cccc3[nH]ccc23)CC1 (racemic) [(±)-Pindobind] | 3.4%
63 | COc1ccc2c(c1)c(CC(=O)N1CCOCC1)c(C)n2C(=O)c1ccc(Cl)cc1 [Indomethacin morpholinylamide] | 22.9%
64 | CO/N=C(\C(=O)N[C@@H]1C(=O)N2C(C(=O)O)=C(COC(C)=O)CS[C@H]12)c1csc(N)n1 [Cefotaxime sodium] | -22.9%
65 | COc1cc(NS(C)(=O)=O)ccc1Nc1c2ccccc2nc2ccccc12 [Amsacrine hydrochloride] | -14.8%
66 | OC(CN1CCC(Cc2ccc(F)cc2)CC1)c1ccc(Cl)cc1 (stereo not drawn) [Eliprodil] | 10.3%
67 | CC(C)NC[C@@H](O)COc1ccc(CC(N)=O)cc1 [R(+)-Atenolol] | -11.2%
68 | CNC(=O)c1cc2c(cn1)[nH]c1ccccc12 [N-Methyl-beta-carboline-3-carboxamide] | 2.2%
69 | CN1CCC[C@@H]1c1cccnc1.Cc1ccc(C(=O)O[C@H](C(=O)O)[C@@H](OC(=O)c2ccc(C)cc2)C(=O)O)cc1 [(+)-Nicotine (+)-di-p-toluoyl tartrate] | 1%
70 | O=C(O)c1cc(=O)c2c(Cl)cc(Cl)cc2[nH]1 [5,7-Dichlorokynurenic acid] | -11.2%
71 | CNC(=O)[C@H]1O[C@@H](n2cnc3c(NCc4cccc(I)c4)ncnc32)[C@H](O)[C@@H]1O | 21%
72 | Cn1ccc2cc3c(cc21)CCN3C(=O)Nc1cccnc1 | -19.5%
73 | CC[C@H](NC(=O)c1c(C)c(-c2ccccc2)nc2ccccc12)c1ccccc1 | 1.3%
74 | Oc1cc2c(c(Cl)c1O)CCNCC2c1ccccc1 (racemic) [(±)-6-Chloro-PB hydrobromide] | -7.3%
75 | CCOC(=O)c1cnc2c(cnn2CC)c1NN=C(C)C [Etazolate hydrochloride] | -6.7%
76 | CC(C)=CCC/C(C)=C/CC/C(C)=C/CSc1ccccc1C(=O)O [Farnesylthiosalicylic acid] | -0.4%
77 | CC(=O)NCCc1c[nH]c2ccc(O)cc12 [N-Acetyl-5-hydroxytryptamine] | -2.2%
78 | O=c1[nH]c2cc(Cl)ccc2c(O)c1-c1cccc(Oc2ccccc2)c1 | 19%
